Reference: publication PMC8484674
These are yes or no findings as the source states them, for the method shown. Binding seen in cells or lysates may run through a third protein. Some results given as binding are weak or reduced against the parent protein; the word gives no strength.

Amino acid sequences for entries named in this document (tags omitted).
UniProt Q14145: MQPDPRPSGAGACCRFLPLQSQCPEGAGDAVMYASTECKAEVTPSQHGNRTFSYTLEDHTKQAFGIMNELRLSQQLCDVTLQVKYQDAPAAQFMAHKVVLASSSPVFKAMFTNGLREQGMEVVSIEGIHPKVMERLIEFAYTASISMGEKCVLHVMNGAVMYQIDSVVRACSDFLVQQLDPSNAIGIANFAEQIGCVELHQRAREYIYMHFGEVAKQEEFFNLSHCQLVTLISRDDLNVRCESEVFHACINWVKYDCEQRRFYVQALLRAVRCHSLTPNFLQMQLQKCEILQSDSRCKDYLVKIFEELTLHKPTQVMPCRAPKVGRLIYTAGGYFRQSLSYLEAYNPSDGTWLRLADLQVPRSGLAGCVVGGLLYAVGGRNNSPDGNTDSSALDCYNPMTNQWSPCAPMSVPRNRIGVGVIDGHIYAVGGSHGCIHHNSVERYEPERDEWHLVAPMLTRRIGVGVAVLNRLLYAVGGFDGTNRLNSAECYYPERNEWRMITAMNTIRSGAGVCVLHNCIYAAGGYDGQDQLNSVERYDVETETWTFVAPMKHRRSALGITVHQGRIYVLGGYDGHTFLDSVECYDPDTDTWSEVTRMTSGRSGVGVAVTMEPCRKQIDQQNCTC

What was measured:
[1] = biological target: endogenous Keap1 (human (endogenous in HEK293T)) (UniProt Q14145); experiment: co-IP; HEK293T treated with DMSO or HNE (12 uM) for 1.5 h; lysate (50 mM Tris pH 7.6, 150 mM NaCl, 1% Triton-X-100) on mouse anti-Keap1 bound protein A resin at 4 °C overnight, western blot
[2] = biological target: His6-Halo-TEV-Keap1 (UniProt Q14145); experiment: pull-down; HEK293T transfected with His6-Halo-TeV-Keap1 or empty vector, treated with 25 uM HNE-alkyne or DMSO for 1.5 h; lysate on TALON resin 1 h at 4 °C, imidazole elution, western blot; the paper calls it co-immunoprecipitation/western blot

B1: Wdr1 (protein, UniProt O75083 1-606)
chain: MPYEIKKVFASLPQVERGVSKIIGGDPKGNNFLYTNGKCVILRNIDNPALADIYTEHAHQVVVAKYAPSGFYIASGDVSGKLRIWDTTQKEHLLKYEYQPFAGKIKDIAWTEDSKRIAVVGEGREKFGAVFLWDSGSSVGEITGHNKVINSVDIKQSRPYRLATGSDDNCAAFFEGPPFKFKFTIGDHSRFVNCVRFSPDGNRFATASADGQIYIYDGKTGEKVCALGGSKAHDGGIYAISWSPDSTHLLSASGDKTSKIWDVSVNSVVSTFPMGSTVLDQQLGCLWQKDHLLSVSLSGYINYLDRNNPSKPLHVIKGHSKSIQCLTVHKNGGKSYIYSGSHDGHINYWDSETGENDSFAGKGHTNQVSRMTVDESGQLISCSMDDTVRYTSLMLRDYSGQGVVKLDVQPKCVAVGPGGYAVVVCIGQIVLLKDQRKCFSIDNPGYEPEVVAVHPGGDTVAIGGVDGNVRLYSILGTTLKDEGKLLEAKGPVTDVAYSHDGAFLAVCDASKVVTVFSVADGYSENNVFYGHHAKIVCLAWSPDNEHFASGGMDMMVYVWTLSDPETRVKIQDAHRLHHVSSLAWLDEHTLVTTSHDASVKEWTITY
For B1, the binding [1] was “binds” and the binding [2] was “binds”.
